Measurements from paper PMC8551656, “Discovery of a novel role of tumor suppressor PDCD4 in stimulation of translation termination” (The Journal of Biological Chemistry, 2021).

The chains behind the UniProt entries cited, without tags or fusion partners. Where a name states a change or a piece, a line headed by the entry shows the natural chain unless it says otherwise.
UniProt P15170: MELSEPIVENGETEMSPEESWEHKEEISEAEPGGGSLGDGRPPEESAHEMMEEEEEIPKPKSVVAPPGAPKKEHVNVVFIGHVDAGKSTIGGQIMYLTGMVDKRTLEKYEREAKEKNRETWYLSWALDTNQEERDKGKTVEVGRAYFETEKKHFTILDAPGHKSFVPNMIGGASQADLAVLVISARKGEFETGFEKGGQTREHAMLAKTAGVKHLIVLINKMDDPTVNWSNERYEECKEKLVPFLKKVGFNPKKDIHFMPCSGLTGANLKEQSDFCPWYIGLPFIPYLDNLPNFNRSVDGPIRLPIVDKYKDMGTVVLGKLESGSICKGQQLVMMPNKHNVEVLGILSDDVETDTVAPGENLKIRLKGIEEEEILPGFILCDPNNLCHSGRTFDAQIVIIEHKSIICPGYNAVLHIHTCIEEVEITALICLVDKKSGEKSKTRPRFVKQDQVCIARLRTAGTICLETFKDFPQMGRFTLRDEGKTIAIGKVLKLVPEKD

Target: T1, GST-tagged programmed cell death 4 protein (PDCD4) (human) (UniProt Q53EL6)
T1 sequence: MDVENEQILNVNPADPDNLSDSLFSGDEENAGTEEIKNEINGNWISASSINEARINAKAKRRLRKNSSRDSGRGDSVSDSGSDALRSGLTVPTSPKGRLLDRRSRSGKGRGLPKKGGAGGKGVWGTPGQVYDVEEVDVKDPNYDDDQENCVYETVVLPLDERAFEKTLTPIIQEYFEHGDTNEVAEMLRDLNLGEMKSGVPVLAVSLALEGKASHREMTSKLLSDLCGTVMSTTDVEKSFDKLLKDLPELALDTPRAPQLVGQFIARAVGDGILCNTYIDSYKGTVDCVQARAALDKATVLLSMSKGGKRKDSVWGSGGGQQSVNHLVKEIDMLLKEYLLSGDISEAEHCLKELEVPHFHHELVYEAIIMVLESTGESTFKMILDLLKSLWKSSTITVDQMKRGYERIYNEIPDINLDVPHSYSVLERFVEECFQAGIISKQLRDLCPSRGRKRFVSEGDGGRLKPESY
Test: pull-down; GST-PDCD4 (40 pmol) co-incubated with PABP, eRF1 and eRF3a-GTP (40 pmol each), 20 μl, 1 h at 4 °C, 25 mM Tris-HCl pH 7.5, 10% glycerol, 100 mM KCl, 2.5 mM MgCl2, 2 mM DTT, 0.25 mM spermidine, 0.2 mM GTP; then held on glutathione-sepharose 4B, four washes, release by TEV protease, western blot; both purified

In the case of “eukaryotic release factor 3a (eRF3a) (from UniProt P15170)”, the binding is reported as “no binding (tested: 40 pmol each in 20 μl)”.

No constants are given. Whether binding was seen depends on the method and setting. Where a sequence is shown, tags or fusion partners need not be part of it.
